# According to patent US7947703B2, “Phenanthridinium derivatives as DNA binding agents” (University Court of the University of Glasgow, priority 2003, dated 2011):
# At least one structure is not confirmed: it was looked up by name or label, or the drawing left a doubt. Marks after values point to notes of the source that are not given here.
# How the values were obtained:
# Salmon DNA = experiment: DNA affinity by Isothermal Titration Calorimetry (ITC), Salmon DNA; assay type: binding
# Protocol: (§1) DIP cytotoxicity was determined by a tetrazolium dye-based microtitration assay. DNA affinity measurements of DIPs were undertaken using Isothermal Titration Calorimetry (ITC).
# Calf DNA = experiment: DNA affinity by Isothermal Titration Calorimetry (ITC), Calf DNA; assay type: binding
# Protocol: as §1
compound,measurement,setting,value
"COc1ccc(CN2CC[n+]3c2c2ccccc2c2ccccc23)cc1.[Br-] [AP3-56, 1-(4-Methoxy-benzyl)-2,3-dihydro-1H-imidazo[1,2-f]phenanthridinium bromide]",Ka Salmon DNA,Salmon DNA,2.89 ± 924.1 M^−1 (10^4)
same,Ka Calf DNA,Calf DNA,2.19 ± 644 M^−1 (10^4)
